Some of the results follow.
Tests used:
Test in all cases: glycan array binding signal (z-score within array); higher = stronger binding
Settings in all cases: glycan notation: IUPAC condensed, linker removed
[1] = molecular target: Gal(b1-4)GlcNAc(b1-2)Man(a1-6)[Man(a1-3)]Man(b1-4)GlcNAc(b1-4)GlcNAc
Outline: (§1)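 Glycan array data came from 3228 arrays in the Consortium for Functional Glycomics database, and only arrays with an available protein sequence were kept. Glycan names were put into IUPAC-condensed notation, and columns mapping to the same glycan were averaged. The binding signal is a within-array Z-score, averaged across arrays of one protein sequence run at different concentrations or buffers and across linkers. A negative Z-score can be read as non-binding.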

[2] = molecular target: Gal(b1-4)GlcNAc(b1-2)[Gal(b1-4)GlcNAc(b1-4)]Man(a1-3)[Gal(b1-4)GlcNAc(b1-2)Man(a1-6)]Man(b1-4)GlcNAc(b1-4)GlcNAc
Outline: as §1

[3] = molecular target: Gal(b1-4)GlcNAc(b1-2)[Gal(b1-4)GlcNAc(b1-4)]Man(a1-3)[Gal(b1-4)GlcNAc(b1-2)[Gal(b1-4)GlcNAc(b1-6)]Man(a1-6)]Man(b1-4)GlcNAc(b1-4)GlcNAc
Outline: as §1

[4] = molecular target: Gal(b1-4)GlcNAc(b1-2)[Gal(b1-4)GlcNAc(b1-4)]Man(a1-3)[GlcNAc(b1-4)][Gal(b1-4)GlcNAc(b1-2)Man(a1-6)]Man(b1-4)GlcNAc(b1-4)GlcNAc
Outline: as §1

[5] = molecular target: Gal(b1-4)GlcNAc(b1-2)[Gal(b1-4)GlcNAc(b1-4)]Man(a1-3)[GlcNAc(b1-4)][Gal(b1-4)GlcNAc(b1-2)[Gal(b1-4)GlcNAc(b1-6)]Man(a1-6)]Man(b1-4)GlcNAc(b1-4)GlcNAc
Outline: as §1

[6] = molecular target: Gal(b1-4)GlcNAc(b1-2)[Gal(b1-4)GlcNAc(b1-6)]Man(a1-6)[Gal(b1-4)GlcNAc(b1-2)Man(a1-3)]Man(b1-4)GlcNAc(b1-4)GlcNAc
Outline: as §1

[7] = molecular target: Gal(b1-4)GlcNAc(b1-2)[Gal(b1-4)GlcNAc(b1-6)]Man(a1-6)[Gal(b1-4)GlcNAc(b1-2)Man(a1-3)]Man(b1-4)GlcNAc(b1-4)[Fuc(a1-6)]GlcNAc
Outline: as §1

[8] = molecular target: Gal(b1-4)GlcNAc(b1-2)[Gal(b1-4)GlcNAc(b1-6)]Man(a1-6)[GlcNAc(b1-4)][Gal(b1-4)GlcNAc(b1-2)Man(a1-3)]Man(b1-4)GlcNAc(b1-4)GlcNAc
Outline: as §1

[9] = molecular target: Gal(b1-4)GlcNAc(b1-2)[Gal(b1-4)GlcNAc(b1-6)]Man(a1-6)[GlcNAc(b1-4)][Gal(b1-4)GlcNAc(b1-2)[Gal(b1-4)GlcNAc(b1-4)]Man(a1-3)]Man(b1-4)GlcNAc(b1-4)[Fuc(a1-6)]GlcNAc
Outline: as §1

[10] = molecular target: Gal(b1-4)GlcNAc(b1-3)Gal(b1-3)GalNAc
Outline: as §1

[11] = molecular target: Gal(b1-4)GlcNAc(b1-3)Gal(b1-3)GlcNAc
Outline: as §1

[12] = molecular target: Gal(b1-4)GlcNAc(b1-3)Gal(b1-4)Glc
Outline: as §1

[13] = molecular target: Gal(b1-4)GlcNAc(b1-3)Gal(b1-4)GlcNAc
Outline: as §1

[14] = molecular target: Gal(b1-4)GlcNAc(b1-3)Gal(b1-4)GlcNAc(b1-2)Man(a1-3)[Gal(b1-4)GlcNAc(b1-3)Gal(b1-4)GlcNAc(b1-2)Man(a1-6)]Man(b1-4)GlcNAc(b1-4)GlcNAc
Outline: as §1

[15] = molecular target: Gal(b1-4)GlcNAc(b1-3)Gal(b1-4)GlcNAc(b1-2)Man(a1-3)[Gal(b1-4)GlcNAc(b1-3)Gal(b1-4)GlcNAc(b1-2)Man(a1-6)]Man(b1-4)GlcNAc(b1-4)[Fuc(a1-6)]GlcNAc
Outline: as §1

[16] = molecular target: Gal(b1-4)GlcNAc(b1-3)Gal(b1-4)GlcNAc(b1-2)[Gal(b1-4)GlcNAc(b1-3)Gal(b1-4)GlcNAc(b1-6)]Man(a1-6)[Gal(b1-4)GlcNAc(b1-3)Gal(b1-4)GlcNAc(b1-2)Man(a1-3)]Man(b1-4)GlcNAc(b1-4)GlcNAc
Outline: as §1

[17] = molecular target: Gal(b1-4)GlcNAc(b1-3)Gal(b1-4)GlcNAc(b1-2)[Gal(b1-4)GlcNAc(b1-3)Gal(b1-4)GlcNAc(b1-6)]Man(a1-6)[Gal(b1-4)GlcNAc(b1-3)Gal(b1-4)GlcNAc(b1-2)Man(a1-3)]Man(b1-4)GlcNAc(b1-4)[Fuc(a1-6)]GlcNAc
Outline: as §1

[18] = molecular target: Gal(b1-4)GlcNAc(b1-3)Gal(b1-4)GlcNAc(b1-3)Gal(b1-4)GlcNAc
Outline: as §1

[19] = molecular target: Gal(b1-4)GlcNAc(b1-3)Gal(b1-4)GlcNAc(b1-3)Gal(b1-4)GlcNAc(b1-2)Man(a1-3)[Gal(b1-4)GlcNAc(b1-3)Gal(b1-4)GlcNAc(b1-3)Gal(b1-4)GlcNAc(b1-2)Man(a1-6)]Man(b1-4)GlcNAc(b1-4)GlcNAc
Outline: as §1

[20] = molecular target: Gal(b1-4)GlcNAc(b1-3)Gal(b1-4)GlcNAc(b1-3)Gal(b1-4)GlcNAc(b1-2)Man(a1-3)[Gal(b1-4)GlcNAc(b1-3)Gal(b1-4)GlcNAc(b1-3)Gal(b1-4)GlcNAc(b1-2)Man(a1-6)]Man(b1-4)GlcNAc(b1-4)[Fuc(a1-6)]GlcNAc
Outline: as §1

[21] = molecular target: Gal(b1-4)GlcNAc(b1-3)Gal(b1-4)GlcNAc(b1-3)Gal(b1-4)GlcNAc(b1-2)[Gal(b1-4)GlcNAc(b1-3)Gal(b1-4)GlcNAc(b1-3)Gal(b1-4)GlcNAc(b1-6)]Man(a1-6)[Gal(b1-4)GlcNAc(b1-3)Gal(b1-4)GlcNAc(b1-3)Gal(b1-4)GlcNAc(b1-2)Man(a1-3)]Man(b1-4)GlcNAc(b1-4)[Fuc(a1-6)]GlcNAc
Outline: as §1

[22] = molecular target: Gal(b1-4)GlcNAc(b1-3)Gal(b1-4)GlcNAc(b1-3)Gal(b1-4)GlcNAc(b1-3)Gal(b1-4)GlcNAc(b1-2)Man(a1-3)[Gal(b1-4)GlcNAc(b1-3)Gal(b1-4)GlcNAc(b1-3)Gal(b1-4)GlcNAc(b1-3)Gal(b1-4)GlcNAc(b1-2)Man(a1-6)]Man(b1-4)GlcNAc(b1-4)GlcNAc
Outline: as §1

B1: PX9961W-pdi-543-27-543 (Parabacteroides distasonis) (protein)
chain: EGNATTTSYFLNDQQAIDAIDGLYERFHQEGCYGRELFWEQGAACDIVWGRTRGYNSLATLAYTGDESPLRDVFSRMYSTMSRANWIIQELVKKEKGTTLTAVEKRSLGEAYFSRGWAHYLIAYRYGTDKQGVPFVRYEDFPDDYDNSIPPQQATVMDNYKLIIEDMDKAIAYLPIFESYDADNRGRAHQAAAVAFKAKTYAYWATWDATQWNNVIEMVNQLENNYNRDLAPTFAELFSSDLKDYWNAEYLWTIPSIGGALPGGTEFPGIILENKGWGKYNGWGQMKPSYDIYEEMAKDGKGNDRLVRSILEYNQEFPFFGETRKFWSTSDLEAGFMINKYMDAFKYSDPVGEGAVSANGDWPTVRVNFPIIRFAEMLLFRAEAYLMTGQADKATADINRIRLRSNLTPLTGTATMKDLYHERRCELAFEFTDHLFDLKRWNRSSNADIKTLADKELNAHPRIRRYEDRANPESAFTIIGYEDYTNKNAYQAHMMVFPYPSEEITKSNGQLKQNEGY
[1]
  glycan array binding signal (z-score): 0.053
[2]
  glycan array binding signal (z-score): 1.85
[3]
  glycan array binding signal (z-score): -0.742
[4]
  glycan array binding signal (z-score): -0.379
[5]
  glycan array binding signal (z-score): 0.011
[6]
  glycan array binding signal (z-score): -1.14
[7]
  glycan array binding signal (z-score): 0.703
[8]
  glycan array binding signal (z-score): -0.468
[9]
  glycan array binding signal (z-score): -0.459
[10]
  glycan array binding signal (z-score): -0.72
[11]
  glycan array binding signal (z-score): -0.076
[12]
  glycan array binding signal (z-score): 0.173
[13]
  glycan array binding signal (z-score): -0.301
[14]
  glycan array binding signal (z-score): 1.2
[15]
  glycan array binding signal (z-score): 0.618
[16]
  glycan array binding signal (z-score): -0.382
[17]
  glycan array binding signal (z-score): 1.57
[18]
  glycan array binding signal (z-score): 0.348
[19]
  glycan array binding signal (z-score): 1.65
[20]
  glycan array binding signal (z-score): -0.332
[21]
  glycan array binding signal (z-score): 0.985
[22]
  glycan array binding signal (z-score): 0.195
